The results in this text go back to article PMC9169372.

Chains of the proteins cited; added tags and fusions are not shown.
UniProt P38398: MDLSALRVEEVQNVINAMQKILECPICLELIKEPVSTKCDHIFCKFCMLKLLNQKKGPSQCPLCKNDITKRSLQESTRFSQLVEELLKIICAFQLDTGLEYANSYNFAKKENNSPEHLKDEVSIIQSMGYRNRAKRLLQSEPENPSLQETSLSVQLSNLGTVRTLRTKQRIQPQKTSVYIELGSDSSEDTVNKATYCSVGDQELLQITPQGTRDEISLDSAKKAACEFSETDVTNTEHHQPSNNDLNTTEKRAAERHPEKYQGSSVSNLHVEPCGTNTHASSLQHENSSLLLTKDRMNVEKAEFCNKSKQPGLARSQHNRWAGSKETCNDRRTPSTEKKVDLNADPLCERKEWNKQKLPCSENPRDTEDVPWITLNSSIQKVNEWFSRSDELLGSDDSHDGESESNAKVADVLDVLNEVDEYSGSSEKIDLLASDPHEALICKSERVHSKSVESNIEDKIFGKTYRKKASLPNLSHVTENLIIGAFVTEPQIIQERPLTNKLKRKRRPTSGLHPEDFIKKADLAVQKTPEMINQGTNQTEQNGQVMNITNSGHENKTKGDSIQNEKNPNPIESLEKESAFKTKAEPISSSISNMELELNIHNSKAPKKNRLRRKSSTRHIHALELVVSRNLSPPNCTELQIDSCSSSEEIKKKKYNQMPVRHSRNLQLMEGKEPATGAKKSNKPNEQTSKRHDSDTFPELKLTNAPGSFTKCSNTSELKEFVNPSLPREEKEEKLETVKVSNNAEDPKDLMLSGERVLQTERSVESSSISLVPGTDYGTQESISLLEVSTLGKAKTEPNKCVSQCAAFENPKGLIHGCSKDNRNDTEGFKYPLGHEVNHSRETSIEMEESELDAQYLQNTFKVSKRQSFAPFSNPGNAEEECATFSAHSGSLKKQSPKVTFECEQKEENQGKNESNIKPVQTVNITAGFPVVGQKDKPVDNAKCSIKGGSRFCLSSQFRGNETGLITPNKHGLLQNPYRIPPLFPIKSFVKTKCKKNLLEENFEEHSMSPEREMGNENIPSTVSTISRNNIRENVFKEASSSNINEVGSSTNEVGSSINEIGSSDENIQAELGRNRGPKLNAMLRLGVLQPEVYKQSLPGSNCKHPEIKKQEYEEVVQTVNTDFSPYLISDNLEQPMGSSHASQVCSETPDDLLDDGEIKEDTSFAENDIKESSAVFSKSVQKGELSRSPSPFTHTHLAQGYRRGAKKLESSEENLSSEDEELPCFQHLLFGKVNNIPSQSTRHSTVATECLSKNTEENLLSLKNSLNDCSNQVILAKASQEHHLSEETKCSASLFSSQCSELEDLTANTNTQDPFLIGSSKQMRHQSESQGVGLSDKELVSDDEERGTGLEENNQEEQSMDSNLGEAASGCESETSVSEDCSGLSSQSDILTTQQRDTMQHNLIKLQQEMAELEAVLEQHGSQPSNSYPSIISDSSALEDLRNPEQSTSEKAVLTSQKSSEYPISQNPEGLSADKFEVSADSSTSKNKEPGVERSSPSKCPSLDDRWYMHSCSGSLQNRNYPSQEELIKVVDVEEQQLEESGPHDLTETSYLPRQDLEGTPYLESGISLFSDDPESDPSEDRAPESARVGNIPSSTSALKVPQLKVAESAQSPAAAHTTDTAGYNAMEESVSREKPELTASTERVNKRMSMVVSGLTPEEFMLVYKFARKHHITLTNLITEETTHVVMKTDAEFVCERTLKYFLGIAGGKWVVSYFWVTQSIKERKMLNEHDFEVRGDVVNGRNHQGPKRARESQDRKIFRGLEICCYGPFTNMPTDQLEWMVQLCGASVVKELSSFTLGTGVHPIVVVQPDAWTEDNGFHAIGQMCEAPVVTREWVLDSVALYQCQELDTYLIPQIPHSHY
UniProt O60331: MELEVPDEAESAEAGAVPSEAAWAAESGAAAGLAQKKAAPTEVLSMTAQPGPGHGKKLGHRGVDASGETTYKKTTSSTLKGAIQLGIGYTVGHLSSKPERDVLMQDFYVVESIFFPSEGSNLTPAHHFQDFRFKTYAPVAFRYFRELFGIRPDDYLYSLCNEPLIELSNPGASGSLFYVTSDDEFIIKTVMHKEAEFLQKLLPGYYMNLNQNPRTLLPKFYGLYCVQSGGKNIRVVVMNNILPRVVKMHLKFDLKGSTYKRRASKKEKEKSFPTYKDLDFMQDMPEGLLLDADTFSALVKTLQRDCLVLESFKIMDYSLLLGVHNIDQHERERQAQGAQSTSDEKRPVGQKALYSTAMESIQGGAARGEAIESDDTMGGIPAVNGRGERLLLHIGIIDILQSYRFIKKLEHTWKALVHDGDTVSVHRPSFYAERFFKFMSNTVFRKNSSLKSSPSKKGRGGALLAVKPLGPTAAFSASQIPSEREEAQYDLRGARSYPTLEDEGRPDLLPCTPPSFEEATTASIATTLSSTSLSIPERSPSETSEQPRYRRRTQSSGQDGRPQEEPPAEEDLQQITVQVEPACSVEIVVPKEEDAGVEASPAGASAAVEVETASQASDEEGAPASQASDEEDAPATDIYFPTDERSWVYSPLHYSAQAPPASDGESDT

In this assay the target is BRCA1 (human (endogenous in colorectal cancer cells)) (UniProt P38398). The assay is described as follows: co-IP; in colorectal cancer cells; performed as previously reported (ref. 2); which protein was precipitated is not told.

These are yes or no findings as the source states them, for the method shown. In cells and extracts the contact can be indirect.

Take “type Iγ phosphatidylinositol phosphate kinase (from UniProt O60331 1-668) (enzyme)”: the binding result is recorded as “no binding”.
